The target of this test is cynomolgus PDGF-BB (cynomolgus). The test is described as follows: summary of the ELISA and SPR data. (ELISA stands for enzyme-linked immunosorbent assay.)

Results are given in words; binding and its absence hold for the method and conditions named. Some binding calls cover weakened binding; strength is not graded here.

B1: PDGF-B-mumAb (antibody, V domains shown)
VH: QVQLQQSGAELMKPGASVKISCKATGYTFSSYWIEWVKQRPGHGLEWIGEILPGSGSTNYNEKFKVKATFTADTSSNTAYMQLSSLTSEDSAVYYCAQTTQDFDSWGQGTTLTVSS
VL: DIVLTQSPGSLAVSLGQRATISCRASESVDIYGYSFMHWYQQKPGQPPKLLIYRASNLESGIPARFSGSGSRTDFTLTINPVEADDVATYYCQQSNEDPRTFGGGTKLEIK
For the molecule B1, the binding result is “binds”.

Values taken from patent publication US20170240629A1.
